Article PMC10590414
These are yes or no findings as the source states them, for the method shown. Binding can be weak; no strength is given.

Chains of the proteins cited; added tags and fusions are not shown. Lines headed by an entry give the natural chain unless they say otherwise; changes in a name come on top.
UniProt P35222: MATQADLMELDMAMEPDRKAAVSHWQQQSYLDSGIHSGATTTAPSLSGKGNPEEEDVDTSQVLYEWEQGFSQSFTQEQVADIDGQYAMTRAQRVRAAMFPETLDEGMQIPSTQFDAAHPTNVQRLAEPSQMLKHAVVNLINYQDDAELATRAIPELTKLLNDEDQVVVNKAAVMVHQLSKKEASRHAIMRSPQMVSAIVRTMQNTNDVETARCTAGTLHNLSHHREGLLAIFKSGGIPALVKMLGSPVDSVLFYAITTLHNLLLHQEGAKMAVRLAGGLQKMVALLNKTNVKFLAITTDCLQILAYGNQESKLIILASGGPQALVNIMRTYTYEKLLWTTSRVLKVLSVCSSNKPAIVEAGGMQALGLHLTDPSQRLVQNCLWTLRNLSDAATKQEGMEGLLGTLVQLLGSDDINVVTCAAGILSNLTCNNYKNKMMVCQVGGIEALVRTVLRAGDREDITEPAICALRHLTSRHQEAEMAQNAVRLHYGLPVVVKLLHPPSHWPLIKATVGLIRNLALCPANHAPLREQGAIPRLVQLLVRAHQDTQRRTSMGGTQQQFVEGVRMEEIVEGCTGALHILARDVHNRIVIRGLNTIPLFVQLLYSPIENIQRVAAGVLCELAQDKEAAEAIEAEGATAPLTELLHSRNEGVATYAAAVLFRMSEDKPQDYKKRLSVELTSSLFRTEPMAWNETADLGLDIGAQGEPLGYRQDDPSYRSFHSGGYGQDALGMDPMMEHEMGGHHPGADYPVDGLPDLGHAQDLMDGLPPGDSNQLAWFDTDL
UniProt Q9Y397: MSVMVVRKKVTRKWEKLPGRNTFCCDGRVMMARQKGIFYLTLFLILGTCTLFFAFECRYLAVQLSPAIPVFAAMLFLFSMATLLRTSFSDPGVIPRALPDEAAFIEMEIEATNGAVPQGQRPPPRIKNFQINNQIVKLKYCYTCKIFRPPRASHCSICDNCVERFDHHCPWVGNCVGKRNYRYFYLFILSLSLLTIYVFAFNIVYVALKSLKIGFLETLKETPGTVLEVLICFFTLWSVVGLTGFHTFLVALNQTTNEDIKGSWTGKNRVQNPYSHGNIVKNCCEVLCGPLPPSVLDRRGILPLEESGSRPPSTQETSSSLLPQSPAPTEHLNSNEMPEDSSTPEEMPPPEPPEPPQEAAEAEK

Molecular target: Recombinant Human β-catenin protein (human) (UniProt P35222)
Assay: pull-down; GST pull-down: His-tagged purified protein (200 ng) mixed with GST fusion protein (100 ng) in 50 mM Tris-HCl pH 7.5, 1% Triton X-100, 150 mM NaCl, 1 mM DTT, 0.5 mM EDTA for 1 h, glutathione agarose 30 min at 4 °C, immunoblot; both purified

- binding: binds
Substance: Recombinant Human DHHC9 protein (from UniProt Q9Y397) (enzyme)
